According to patent publication US10876076B2, “Detergents and cleaning agents having improved performance” (Henkel AG & Co. KGaA, priority 2016, dated 2020):

Assay: Washing tests, cleaning performance on standardized stains on cotton
Conditions: 40° C., 70 g bleach-free liquid washing agent plus 0.7 g compound in 17 l water of 16° dH, versus washing agent alone
Experimental: Washing tests were carried out at 40° C. as a triple determination on standardized stains, specified in table 1, on cotton, an aqueous liquid washing agent that is free of bleaching agent (and contains, in addition to water, 5.5 wt. % 7-fold ethoxylated C12/14 fatty alcohol, 5.3 wt. % sodium C9-13 alkylbenzene sulfonate, 4.9 wt. % sodium C12/14 fatty alcohol ether sulfate having 2 EO, 1.8 wt. % citric acid, 3 wt. % C12-18 fatty acid, 0.1 wt. % diethylene triamine penta (methylene phosphonic acid) hepta sodium salt, 1.3 wt. % NaOH, 3.6 wt. % ethanol/glycerol) having a pH of 8.5 having been used and washing liquors having been prepared therewith, the washing liquors consisting of 70 g of the liquid washing agent or 70 g of the liquid washing agent and 0.7 g Si from example 1 in every 17 l water of 16° dH. The evaluation was completed by measuring the color distance according to the L*a*b* vales and the Y values calculated therefrom as a measure for brightness.

For `CN(C)CCNC(=O)c1ccc(C(=O)NCCN(C)C)c(O)c1O` [S1, 2,3-dihydroxy-N,N′-bis(2-(dimethylamino)ethyl) terephthaldiamide], the “d(dY)” value (Bilberry juice stain on cotton) was 8.0, the “d(dY)” value (Blackcurrant juice stain on cotton) was 4.5 and the “d(dY)” value (Cocoa stain on cotton) was 4.6. For the same molecule, the “d(dY)” value (Coffee stain on cotton) was 3.7 and the “d(dY)” value (Red wine stain on cotton) was 3.3.
